Test results: patent US20080275027A1, “Piperazinone Derivatives Useful as Histamine H3 Receptor Antagonists and/or Inverse Agonists” (priority 2005, published 2008)
Some of these results come from one statement about several compounds together.

By UniProt entry, the sequences of proteins in these tests, tags left out. Where a name states a change or a piece, a line headed by the entry shows the natural chain unless it says otherwise.
UniProt P35367, whole entry: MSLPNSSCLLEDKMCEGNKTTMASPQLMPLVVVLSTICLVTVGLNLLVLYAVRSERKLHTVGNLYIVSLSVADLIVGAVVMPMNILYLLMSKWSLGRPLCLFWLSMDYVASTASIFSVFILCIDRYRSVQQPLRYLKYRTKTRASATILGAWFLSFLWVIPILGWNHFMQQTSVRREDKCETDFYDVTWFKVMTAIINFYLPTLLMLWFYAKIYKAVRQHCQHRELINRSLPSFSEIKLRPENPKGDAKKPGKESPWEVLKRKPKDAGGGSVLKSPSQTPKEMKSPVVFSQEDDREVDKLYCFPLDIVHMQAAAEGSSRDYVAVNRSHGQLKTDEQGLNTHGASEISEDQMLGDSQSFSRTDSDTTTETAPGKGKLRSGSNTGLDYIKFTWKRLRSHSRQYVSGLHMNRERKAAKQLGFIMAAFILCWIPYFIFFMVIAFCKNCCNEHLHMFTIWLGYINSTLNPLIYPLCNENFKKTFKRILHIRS
UniProt Q9Y5N1: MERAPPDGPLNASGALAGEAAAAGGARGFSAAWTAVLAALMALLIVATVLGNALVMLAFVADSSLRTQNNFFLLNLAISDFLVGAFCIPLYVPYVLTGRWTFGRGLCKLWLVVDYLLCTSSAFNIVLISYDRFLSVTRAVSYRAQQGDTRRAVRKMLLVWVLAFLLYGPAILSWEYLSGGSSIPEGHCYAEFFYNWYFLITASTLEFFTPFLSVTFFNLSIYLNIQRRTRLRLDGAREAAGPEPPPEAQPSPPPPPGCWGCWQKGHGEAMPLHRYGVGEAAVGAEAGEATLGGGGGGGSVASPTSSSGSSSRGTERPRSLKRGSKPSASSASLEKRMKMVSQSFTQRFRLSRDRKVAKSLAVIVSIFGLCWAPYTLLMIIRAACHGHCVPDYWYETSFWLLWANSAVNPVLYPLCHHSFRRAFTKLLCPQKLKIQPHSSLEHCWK

What was measured:
human H1 receptor = target: T1, human H1 receptor (Homo sapiens, UniProt P35367); assay: Histamine H1 functional antagonist assay (FLIPR, CHO cells); assay type: cell-based; conditions: functional antagonism vs histamine at EC80; calcium fluorescence (FLIPR)
T1 construct: expressed in transfected cells

histamine H3 receptor = histamine H3 receptor (Homo sapiens, UniProt Q9Y5N1); assay: Histamine H3 functional antagonist assay ([35S]-GTPγS SPA, CHO K1 cell membranes); conditions: functional antagonism vs histamine at EC80; GTPγS binding

Structure (SMILES)	average pKi (pKb) at H1 (human H1 receptor)	average pKi (pKb) at H3 (histamine H3 receptor)
CC(C)N1CCC(Oc2ccc(N3CCN(C(=O)c4ccc(C(=O)N5CCOCC5)cc4)CC3=O)cc2)CC1 [Example E86]	less than 6.0	greater than 8.0
CC(C)(C)C(=O)N1CCN(c2ccc(OC3CCN(C4CCC4)CC3)cc2)C(=O)C1 [Example E1]	less than 6.0	greater than 8.0
O=C(c1cccc2ncccc12)N1CCN(c2ccc(OCCCN3CCCC3)cc2)C(=O)C1 [Example E152]	less than 6.0	greater than 8.0
CC1CCCN1CCCOc1ccc(N2CCN(C(=O)c3ccc(S(C)(=O)=O)cc3)CC2=O)cc1 (centres unmarked) [Example E61]	less than 6.0	greater than 8.0
O=C(c1ccc(C(=O)N2CCN(c3ccc(OCCCN4CCCC4)cc3)C(=O)C2)cc1)N1CCC1 [Example E146]	less than 6.0	greater than 8.0
Cc1ncccc1C(=O)N1CCN(c2ccc(OCCCN3CCCCC3)cc2)C(=O)C1 [Example E57]	less than 6.0	greater than 8.0
CC(C)N1CCC(Oc2ccc(N3CCN(C(=O)c4ccc5c(c4)CCCS5(=O)=O)CC3=O)cc2)CC1 [Example E84]	less than 6.0	greater than 8.0
COCCN(C)C(=O)c1ccc(C(=O)N2CCN(c3ccc(OC4CCN(C5CCC5)CC4)cc3)C(=O)C2)cc1 [Example E79]	less than 6.0	greater than 8.0
CC1CCCN1CCCOc1ccc(N2CCN(C(=O)c3ccncc3)CC2=O)cc1 (centres unmarked) [Example E62]	less than 6.0	greater than 8.0
Cc1ncccc1C(=O)N1CCN(c2ccc(OCCCN3CCCC3)cc2)C(=O)C1 [Example E70]	less than 6.0	greater than 8.0
O=C(c1cccc2ccc(=O)[nH]c12)N1CCN(c2ccc(OC3CCN(C4CCC4)CC3)cc2)C(=O)C1 [Example E110]	less than 6.0	greater than 8.0
CS(=O)(=O)c1ccc(C(=O)N2CCN(c3ccc(OCCCN4CCCCCC4)cc3)C(=O)C2)cc1 [Example E100]	less than 6.0	greater than 8.0
CC(C)N1CCC(Oc2ccc(N3CCN(C(=O)c4cccc(C(=O)N5CCCC5)c4)CC3=O)cc2)CC1 [Example E85]	less than 6.0	greater than 8.0
O=C(c1ccc(C(=O)N2CCN(c3ccc(OCCCN4CCCCC4)cc3)C(=O)C2)cc1)N1CCCC1 [Example E133]	less than 6.0	greater than 8.0
N#Cc1cccc(C(=O)N2CCN(c3ccc(OCCCN4CCCCC4)cc3)C(=O)C2)c1 [Example E171]	less than 6.0	greater than 8.0
CC(C)N1CCC(Oc2ccc(N3CCN(C(=O)C(C)(C)C)CC3=O)cc2)CC1 [Example E18]	less than 6.0	greater than 8.0
O=C(c1cccc2ccc(=O)[nH]c12)N1CCN(c2ccc(OCCCN3CCCCCC3)cc2)C(=O)C1 [Example E114]	less than 6.0	greater than 8.0
O=C(c1ccc(C(=O)N2CCN(c3ccc(OCCCN4CCCC4)cc3)C(=O)C2)cc1)N1CCCC1 [Example E147]	less than 6.0	greater than 8.0
O=C(c1ccc2ncsc2c1)N1CCN(c2ccc(OC3CCN(C4CCC4)CC3)cc2)C(=O)C1 [Example E47]	less than 6.0	greater than 8.0

Structure (SMILES)	average pKi (pKb) at H1 (human H1 receptor)	average pKi (pKb) at H3 (histamine H3 receptor)
CC(C)N1CCC(Oc2ccc(N3CCN(C(=O)c4ccc(S(C)(=O)=O)cc4)CC3=O)cc2)CC1 [Example E77]	less than 6.0	greater than 8.0
CC(C)N1CCC(Oc2ccc(N3CCN(C(=O)c4cnn5cccnc45)CC3=O)cc2)CC1 [Example E140]	less than 6.0	greater than 8.0
COc1ccc(C(=O)N2CCN(c3ccc(OCCCN4CCCCC4)cc3)C(=O)C2)cc1Cl [Example E29]	less than 6.0	greater than 8.0
Cc1noc(C)c1C(=O)N1CCN(c2ccc(OC3CCN(C4CCC4)CC3)cc2)C(=O)C1 [Example E157]	less than 6.0	greater than 8.0
O=C(C1CCCCC1)N1CCN(c2ccc(OCCCN3CCCCC3)cc2)C(=O)C1 [Example E31]	less than 6.0	greater than 8.0
C[C@@H]1CCCN1CCCOc1ccc(N2CCN(C(=O)c3cc(F)ccc3F)CC2=O)cc1 [Example E166]	less than 6.0	greater than 8.0
O=C(c1cnn2cccnc12)N1CCN(c2ccc(OC3CCN(C4CCC4)CC3)cc2)C(=O)C1 [Example E111]	less than 6.0	greater than 8.0
CCc1ccc(C(=O)N2CCN(c3ccc(OC4CCN(C(C)C)CC4)cc3)C(=O)C2)cc1 [Example E19]	less than 6.0	greater than 8.0
C[C@@H]1CCCN1CCCOc1ccc(N2CCN(C(=O)c3cccc(F)c3F)CC2=O)cc1 [Example E165]	less than 6.0	greater than 8.0
Cn1nnc2cc(C(=O)N3CCN(c4ccc(OC5CCN(C6CCC6)CC5)cc4)C(=O)C3)ccc21 [Example E49]	less than 6.0	greater than 8.0
O=C(c1cccc2ccc(=O)[nH]c12)N1CCN(c2ccc(OCCCN3CCCCC3)cc2)C(=O)C1 [Example E136]	less than 6.0	greater than 8.0
COc1cc(C(=O)N2CCN(c3ccc(OCCCN4CCCCC4)cc3)C(=O)C2)ccc1C [Example E17]	less than 6.0	greater than 8.0
O=C(c1cccnc1)N1CCN(c2ccc(OC3CCN(C4CCC4)CC3)cc2)C(=O)C1 [Example E50]	less than 6.0	greater than 8.0
CC(C)N1CCC(Oc2ccc(N3CCN(C(=O)c4ccc(F)c5ncccc45)CC3=O)cc2)CC1 [Example E139]	less than 6.0	greater than 8.0
O=C(c1cccc2ncccc12)N1CCN(c2ccc(OC3CCN(C4CCC4)CC3)cc2)C(=O)C1 [Example E112]	less than 6.0	greater than 8.0
NC(=O)Cc1ccc(C(=O)N2CCN(c3ccc(OC4CCN(C5CCC5)CC4)cc3)C(=O)C2)cc1 [Example E43]	less than 6.0	greater than 8.0
O=C(c1cccc(C(=O)N2CCN(c3ccc(OCCCN4CCCCC4)cc3)C(=O)C2)c1)N1CCCC1 [Example E132]	less than 6.0	greater than 8.0
O=C(c1ccc(F)c2ncccc12)N1CCN(c2ccc(OCCCN3CCCCCC3)cc2)C(=O)C1 [Example E117]	less than 6.0	greater than 8.0
